Test results taken from patent publication US20140065697A1, “CELLS AND METHODS FOR PRODUCING ISOBUTYRIC ACID” (Regents of the University of Minnesota, priority 2011, published 2014).
At least one read-out could not be matched to a standard name with certainty.

Molecular target: T1, PadA (Escherichia coli, UniProt P80668)
T1 construct: […]; 6xHis (N); made in house; host or cells: E. coli BL-21 harboring pREP4; plasmid pIBA10 (pQE9)
T1 sequence (P80668 1-499): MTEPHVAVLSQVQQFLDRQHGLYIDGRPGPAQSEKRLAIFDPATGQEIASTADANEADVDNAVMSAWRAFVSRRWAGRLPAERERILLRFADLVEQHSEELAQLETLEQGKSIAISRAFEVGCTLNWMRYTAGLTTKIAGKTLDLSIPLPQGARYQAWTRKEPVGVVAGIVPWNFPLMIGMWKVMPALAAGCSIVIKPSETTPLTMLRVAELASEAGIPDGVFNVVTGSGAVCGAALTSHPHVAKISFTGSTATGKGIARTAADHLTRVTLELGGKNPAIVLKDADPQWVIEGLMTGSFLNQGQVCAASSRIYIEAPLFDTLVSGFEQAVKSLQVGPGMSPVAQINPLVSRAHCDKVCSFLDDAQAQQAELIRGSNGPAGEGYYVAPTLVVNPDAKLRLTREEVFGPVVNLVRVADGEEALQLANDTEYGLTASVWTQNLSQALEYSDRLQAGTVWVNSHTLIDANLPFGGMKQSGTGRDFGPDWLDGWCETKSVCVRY
Assay: Measurement of PadA activity (NADH generation at 340 nm, Michaelis-Menten fit)
Format: biochemical, E. coli
Conditions: substrate isobutyraldehyde
Method: Because it produced the greatest amount of isobutyrate, we selected PadA for further study. To characterize the enzyme, PadA was tagged with an N-terminal 6×His-tag, overexpressed, and purified through a Ni-NTA column. The kinetic parameters for conversion of isobutyraldehyde by PadA were determined by measuring the reduction of NAD+ to NADH at 340 nm. PadA activity toward isobutyraldehyde is much lower than that toward its natural physiological substrate phenylacetaldehyde.
pIBA10 was transformed into BL-21 E. coli host harboring the pREP4 plasmid (Qiagen; Valencia, Calif.). […]
The cell pellet was sonicated in 30 mL lysis buffer (250 mM NaCl, 2 mM DTT, 5 mM imidazole and 50 mM Tris pH 8.0). […] Protein concentration was determined by measuring the UV absorbance at 280 nm (extinction coefficient, 75070 cm^−1 M^−1). […]
Substrate isobutyraldehyde was purchased from Fisher Scientific International, Inc. (Hampton, N.H.), and NAD^+ was from New England Biolabs, Inc., (Ipswich, Mass.). […] The reactions were started by adding 2 μl […] (final enzyme concentration 25 nM), and the generation of NADH was monitored at 340 nm (extinction coefficient, 6.22 mM^−1 cm^−1). Kinetic parameters (kat and Km) were determined by fitting initial velocity data to the Michaelis-Menten equation using Origin software.

CC(C)C=O [Isobutyraldehyde, isobutyraldehyde] showed a kcat/Km of 9330 M⁻¹ s⁻¹.
